Percent effect of library compounds

The chains behind the UniProt entries cited, without tags or fusion partners. Residues count along the entry.
UniProt Q4DA54, 1-478: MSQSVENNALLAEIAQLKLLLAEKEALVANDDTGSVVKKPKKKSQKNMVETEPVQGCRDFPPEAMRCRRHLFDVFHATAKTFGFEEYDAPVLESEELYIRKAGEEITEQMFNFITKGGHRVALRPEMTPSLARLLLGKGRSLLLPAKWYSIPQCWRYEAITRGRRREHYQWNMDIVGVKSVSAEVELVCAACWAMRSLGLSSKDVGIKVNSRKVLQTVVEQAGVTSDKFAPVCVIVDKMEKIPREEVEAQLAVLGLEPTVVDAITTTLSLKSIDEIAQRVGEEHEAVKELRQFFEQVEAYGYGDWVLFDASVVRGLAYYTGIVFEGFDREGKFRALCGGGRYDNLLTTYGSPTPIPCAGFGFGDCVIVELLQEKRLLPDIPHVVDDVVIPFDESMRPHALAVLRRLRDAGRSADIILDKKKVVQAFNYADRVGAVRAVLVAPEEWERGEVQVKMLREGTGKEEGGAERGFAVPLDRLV
UniProt P9WNZ1, whole entry: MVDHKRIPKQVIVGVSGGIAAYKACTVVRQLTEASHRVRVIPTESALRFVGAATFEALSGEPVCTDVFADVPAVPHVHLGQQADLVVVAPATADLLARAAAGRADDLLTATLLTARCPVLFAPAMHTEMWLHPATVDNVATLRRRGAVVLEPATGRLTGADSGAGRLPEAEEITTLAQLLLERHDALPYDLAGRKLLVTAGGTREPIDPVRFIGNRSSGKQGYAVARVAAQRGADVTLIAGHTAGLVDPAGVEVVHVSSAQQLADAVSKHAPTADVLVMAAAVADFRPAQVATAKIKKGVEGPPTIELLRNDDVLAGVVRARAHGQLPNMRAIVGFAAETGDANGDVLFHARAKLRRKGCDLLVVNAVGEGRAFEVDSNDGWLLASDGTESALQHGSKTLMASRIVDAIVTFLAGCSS

TcHisRS: 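Histidine-tRNA ligase, Trypanosoma cruzi CL Brener (UniProt Q4DA54). Enzyme assay of histidyl-tRNA synthetase; the read-out is not stated. Compounds at 30 µM. The record gives no direction; compounds that gave an IC50 in retests scored well above the rest, so higher reads as stronger inhibition. Size under these conditions: about 69,000 compounds, about 31 of them at 50% or above in at least one test.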
CoaBC: 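Coenzyme A biosynthesis protein CoaBC, Mycobacterium tuberculosis (UniProt P9WNZ1). Enzyme assay of CoaBC with a phosphate dye (Biomol Green) read at 650 nm. Compounds at 30 µM. Direction is inferred from only a few compounds that gave an IC50; most scored high, so higher reads as stronger inhibition. Most strong results did not repeat in a second test. Size under these conditions: about 67,000 compounds, about 40 of them at 50% or above in at least one test.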

Results are given as percent effect.
The controls that fix the scale are not given in the record; negative values are as filed.
The compounds are a random part of those screened.
Two or more numbers in one place are separate tests of the same structure; such repeats can differ widely.
A dash means the value is not listed here; it may have been measured.

compound	TcHisRS	CoaBC
CN(C)CCN(Cc1cccc(F)c1)C(=O)c1ccn(C)c(=O)c1	0.8929%	-0.1258%
O=S(=O)(NC1CCC12CCN(CC1CC1)CC2)c1ccccc1 (stereo not shown)	7.595%	-
CC(C)N(C)S(=O)(=O)N(C)Cc1ccc2c(c1)OCCO2	6.286%	1.195%
COc1cc(C(=O)N(CCC#N)Cc2ccccn2)ccc1C	3.333%	4.545%
CN(C)C(=O)CN1CCC2(CCCN(Cc3cccs3)C2)C1=O (stereo not shown)	2.041%	4.574%
CC(C)CCN1CCN(C(=O)c2c[nH]nn2)CC1	7.179%	2.067%
CC(C)c1noc([C@@H]2C[C@H](NS(=O)(=O)Cc3ccccc3)CN2C)n1	-1.493%	10.41%
CCn1cc2c(n1)CN(S(=O)(=O)c1cccnc1)CC2COC (stereo not shown)	6.952%	-6.667%
Cc1nsc(N2CCCN(c3ccc(C#N)cn3)CC2)n1	5.759%	3.64%
Cc1c(C(=O)N2CCCC(n3cccn3)C2)nnn1-c1ccccc1 (stereo not shown)	5.085%	1.305%
O=C(NC1CC1)[C@H]1C[C@H]2OCC[C@H]2N(Cc2cccnc2)C1	5.785%	2.521%
CC(C)c1cc(NCC2(N(C)C)CCCC2)ncn1	3.571%	1.716%
Cc1nc(C)n(CC2CN(S(C)(=O)=O)Cc3nccn3C2)n1 (stereo not shown)	-1.087%	7.407% and 20.09%
COCC(=O)N(C)Cc1ccc(F)c(F)c1	3.015%	4.039%
CC(O)CN1CCN(Cc2coc(-c3ccccc3Cl)n2)CC1 (stereo not shown)	7.407%	4.294%
CCCOc1ccc2c(c1)OCC(C(=O)NC(C)Cn1ccnc1)=C2 (stereo not shown)	-5.978%	1.24%
O=C(c1cc(-n2cccn2)ccn1)N1CCOc2ccc(F)cc21	6.522%	5.444%
Cc1cnn(C2CCCN(C(=O)c3cn4ccccc4n3)C2)c1 (stereo not shown)	-0.8596%	6.832%
COCCNC(=O)CN1CC=C(n2c(C)nc(=O)c3ccccc32)CC1	-10%	3.881%
Cc1nc(C)n(CC2CCCN2Cc2cn3ccccc3c2C#N)n1 (stereo not shown)	5.208%	-0.2301%
Cn1cc(C[C@H]2[C@@H](O)CCN2C(=O)c2ccc[nH]2)cn1	-4.082%	-1.112%
Cc1cc(N(Cc2cccs2)C2CC2)n2nc(C(F)(F)F)nc2n1	12.37%	5.934%
O=C(C1CCCc2[nH]ncc21)N1CCCCCC1 (stereo not shown)	0%	3.524%
CCn1ncc2c1C(COC)N(C(=O)c1ccsc1)CC2 (stereo not shown)	9.524%	3.704%
COC(=O)c1cc(C(=O)N2CCCC(C)C2)n(-c2ccccc2)n1 (stereo not shown)	6.509%	7.731%
CN1CCCN(c2nccc(-c3cncnc3C3CCCCC3)n2)CC1	7.91%	3.735%
Cc1nc(CN(C)Cc2cn[nH]c2-c2ccc(F)cc2)c[nH]1	5.978%	0.4132%
CC(C)c1cc(C(=O)NCc2nc(-c3ccc(F)cc3)n[nH]2)n[nH]1	7.792%	0.2439%
O=S(=O)(CCCN1CCCC1Cn1cncn1)c1ccccc1 (stereo not shown)	9.506%	1.581%
CCCc1nc(CN2CCN(C(C)c3nc(C4CC4)no3)CC2)no1 (stereo not shown)	4.843%	1.072%
Cc1nn(C)c(Cl)c1C1CCCN1C(=O)c1cc(C2CC2)on1 (stereo not shown)	2.907%	6.36%
NC(=O)CCOc1ccc(NC(=O)c2ccccc2OC(F)F)cc1	0%	7.57%
CCCS(=O)(=O)NC(C)C(=O)NCc1ccnc(N2CCCC2)c1 (stereo not shown)	0.2907%	5.006%
Cc1nc(CN2CC3(CCN(c4cnccn4)C3)CC2=O)cs1 (stereo not shown)	-2.439%	5.514%
CC(C)(C)c1noc(OCC(=O)NCC(F)(F)F)n1	0.9852%	2.244%
Cc1cccc(Nc2ccc(C3CCN(Cc4ncc[nH]4)CC3)nc2)n1	4.857%	11.64%
Cc1nc(C)c(Cn2ccnc2-c2cc(CN(C)C)cs2)s1	2.4%	-19.32%
Cc1cccc(N2N=C(C(=O)NC(C)CCc3ccco3)CCC2=O)c1 (stereo not shown)	-2.564%	6.46%
O=C(Cn1cc(Cl)cn1)Nc1ccc2c(c1)OCO2	9.74%	-2.539%
C[C@H]1C[C@H]2CN(S(=O)(=O)c3ccc(F)cc3)CC[C@@H]2O1	0.9709%	3.475%

The last 4 entries again:

Result for Cc1nc(C)c(Cn2ccnc2-c2cc(CN(C)C)cs2)s1 was TcHisRS: 2.4%; CoaBC: -19.32%.
Result for Cc1cccc(N2N=C(C(=O)NC(C)CCc3ccco3)CCC2=O)c1 (stereo not shown) was TcHisRS: -2.564%; CoaBC: 6.46%.
Result for O=C(Cn1cc(Cl)cn1)Nc1ccc2c(c1)OCO2 was TcHisRS: 9.74%; CoaBC: -2.539%.
Result for C[C@H]1C[C@H]2CN(S(=O)(=O)c3ccc(F)cc3)CC[C@@H]2O1 was TcHisRS: 0.9709%; CoaBC: 3.475%.

Data taken from ChEMBL document CHEMBL3988442, “University of Dundee, Small-Polar-MMV Screening Library” (2021).